Measurements as given in PubChem BioAssay AID504834 (National Center for Advancing Translational Sciences (NCATS), 2011).
In all, about 320,000 compounds went through this assay and about 22,000 (6.9%) were called active. The inconclusive results got no clear call from the source; some entries with a clear call stand among them for comparison. Calls follow the shape of the dose curve; as a rule, active = well fitted inhibition curve with a large enough effect; inconclusive = small, poorly fitted or top-dose-only effect, or another doubt; inactive = no such curve, though single readings can be large or run the other way. A potency beside an inconclusive call is a rough fit, not a confirmed value.

Assay: Primary qHTS for delayed death inhibitors of the malarial parasite plastid, 96 hour incubation
Conditions: P. falciparum luciferase reporter growth; series mostly up to 28.7 µM; activity change, negative = inhibition: at the top concentration
Outline: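 Erythrocytes infected with luciferase-expressing P. falciparum were dispensed at 2% hematocrit and 0.05% parasitemia (final), then incubated with compounds 96 hours at 37 C in 5% CO2. Luminescence after detection reagent addition reported growth.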
% is scaled to controls: 0 for no effect and ±100 for the full control effect; potency is read from the fitted curve at half-maximal effect.

Compound | Potency | activity change, negative = inhibition
COCCNC(=S)N/N=C(\C)c1ccc(-n2ccnc2)cc1 | inconclusive: 11.7 µM [inhibitor, single point] | 
O=C(COC(=O)c1ccc2[nH]c3c(c2c1)CCCC3)Nc1ccccc1 |  | inactive: 16.9%
O=C(Nc1ccnn1C1CCN(Cc2ccc(F)cc2)CC1)C1CC1 |  | inactive: -11.5%
Cc1ccc(C(=O)O/N=C(\N)c2nonc2N)cc1 | inconclusive: 6.57 µM [inhibitor, partial curve] | 
CC(=O)Nc1ccc2nc(SCC(=O)N3CCOCC3)sc2c1 |  | inactive: 0.0414%
CCCCCn1c(=O)[nH]c2cc(C(=O)NCCN3C(C)CCCC3C)ccc2c1=O (configuration not stated) | inconclusive: 11.7 µM [inhibitor, partial curve, poor fit] | 
COc1ccccc1CNC(=O)C1CCN(S(=O)(=O)c2ccc(-n3cnnn3)cc2)CC1 | inconclusive: 11.7 µM [inhibitor, single point] | 
CCc1nnc(NC(=O)C(NS(=O)(=O)c2ccc3c(c2)OCCO3)C(C)C)s1 (configuration not stated) | inconclusive: 14.7 µM [inhibitor, single point] | 
O=S1(=O)N=C(Nc2nc3c(s2)CCCC3)c2ccccc21 |  | inactive: 8.21%
O=C(CCS(=O)(=O)c1cccc2nsnc12)N1CC(=O)N(CCc2ccccc2)C(=O)C1 | inconclusive: 1.31 µM [inhibitor, partial curve, poor fit] | 
CC(=O)Nc1cccc(C(=O)/C=C/c2ccc(N(C)C)cc2)c1 |  | inactive: 105%
CCCCN(C(=O)c1cccc(S(=O)(=O)N2CCN(C)CC2)c1)c1c(N)n(CCC)c(=O)[nH]c1=O |  | inactive: 19.3%
O=S(=O)(Nc1ccc(F)cc1)N1CCCCCC1 | inconclusive: 18.5 µM [inhibitor, single point] | 
Cc1ccc(NC(=O)c2ccccc2N(C)S(C)(=O)=O)cc1C |  | inactive: 11.6%
Cc1ccc(N(C)C(=O)Oc2cccc3cccnc23)cc1 |  | inactive: 18.1%
N#C/C(=N\Nc1ccc(S(=O)(=O)N2CCc3ccccc32)cc1)C(N)=S | inconclusive: 7.38 µM [inhibitor, partial curve, poor fit] | 
OCc1cn(Cc2ccc(O)c3ncccc23)cn1 | active: 6.57 µM | 
C/C(=N/NC(=O)CNC(=O)c1ccccn1)c1ccc([N+](=O)[O-])cc1 |  | inactive: -42.6%
COc1cc2c(cc1OC)C(C(C(=O)N(CCc1ccc(OC)c(OC)c1OC)CCc1ccc(OC)c(OC)c1OC)c1ccccc1)=NCC2 (configuration not stated) | active: 1.51 µM | 
O=C(C1CCCN(Cc2ccccc2)C1)N1CCc2ccccc2C1 (configuration not stated) |  | inactive: -20.4%
CCOc1ccc(C(=O)OCC(=O)N2CCCC2)cc1OCC |  | inactive: 6.85%
Cc1ccccc1-n1c(SCC(=O)NCc2cccs2)nnc1-c1ccncc1 |  | inactive: 9.17%
